Taken from: PubChem BioAssay AID686937 (Drosophila RNAi Screening Center, 2013)
The screen tested about 23,000 reagents; shown is a random part of those with a known target gene and a result. 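Reduced-secretion tags in replicate 1 do not always agree with the z-scores; no criterion for assigning the tags was given.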 A plus sign joins genes that one reagent is predicted to hit. Further read-outs or replicates are left out here. Not given: the amount of reagent.

Screen: 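Genes whose loss weakens secretory pathway function in fly cells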 (primary screen)
Cell system: Drosophila S2 cells expressing secreted horseradish peroxidase
Reagents: long dsRNA against Drosophila genes
Time to read-out: about 5.5 days (5 days dsRNA, then 12 h reporter induction)
Challenge: reporter expression induced after 5 days of dsRNA, read 12 h later; inducer not stated
Detection: 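Chemiluminescent measurement of peroxidase in the medium 12 h after reporter induction, following 5 days of dsRNA, given as a z-score per plate; higher means more secretion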
Scale: z-score: higher = more reporter secreted into medium

Knock-down of CG14440 [DRSC17933] gave: z-score, replicate 1 = -0.61.
Depletion of mew [DRSC18971] came out at: z-score, replicate 1 = 0.13.
mew [DRSC20352] showed z-score, replicate 1 = 0.17.
Tsp42Ef [DRSC06191] showed z-score, replicate 1 = -8.36; phenotype, replicate 1 = reduced secretion.
Knock-down of Sf3b6 [DRSC09972] gave: z-score, replicate 1 = -0.24.
Against CG5550 [DRSC06943], the values are z-score, replicate 1 = 0.25.
After knock-down of tra [DRSC11405], the screen gave z-score, replicate 1 = 0.26.
CG7084 [DRSC16194] showed z-score, replicate 1 = 0.3.
Silencing of Nup58 [DRSC16235] resulted in: z-score, replicate 1 = -0.13.
eIF4H2 [DRSC14582] gave z-score, replicate 1 = 0.28.
Silencing of kay [DRSC13962] came out at: z-score, replicate 1 = -0.47.
kay [DRSC15048] showed z-score, replicate 1 = -5.04.
Silencing of kay [DRSC16977] gave: z-score, replicate 1 = 0.71.
CG34347 [DRSC14047] showed z-score, replicate 1 = 0.49.
After knock-down of CG34347 [DRSC14305], the screen gave z-score, replicate 1 = -0.01.
Depletion of CG34347 [DRSC15104] resulted in: z-score, replicate 1 = -1.15.
For CG34347 [DRSC15105] the deposit lists z-score, replicate 1 = -1.26; phenotype, replicate 1 = reduced secretion.
Skp2 + CG14645 [DRSC12231] scored z-score, replicate 1 = 0.05.
Art9 [DRSC16584] showed z-score, replicate 1 = 0.19.
Against TwdlY [DRSC19153], the entry reads z-score, replicate 1 = -0.72.
Sgs5 [DRSC16862] scored z-score, replicate 1 = -0.46.
Knock-down of CG14185 [DRSC10184] gave: z-score, replicate 1 = 0.14.
For cg [DRSC07650], the entry reads z-score, replicate 1 = -5.48; phenotype, replicate 1 = reduced secretion.
For DCTN2-p50 [DRSC07132], the values are z-score, replicate 1 = 0.22.
Against CG4229 [DRSC10407] the deposit lists z-score, replicate 1 = 0.41.
Depletion of galla-2 [DRSC10936] gave: z-score, replicate 1 = 0.06.
galla-2 [DRSC21949] scored z-score, replicate 1 = 0.48.
Silencing of Cp7Fa [DRSC18032] came out at: z-score, replicate 1 = 0.25.
After knock-down of Cp7Fa [DRSC18033], the record shows z-score, replicate 1 = 0.21.
With knock-down of SrpRalpha [DRSC20251], the record shows z-score, replicate 1 = -1.63; phenotype, replicate 1 = reduced secretion.
CG34164 [DRSC02837] gave z-score, replicate 1 = 0.3.
Knock-down of alien + CG17906 [DRSC02641] came out at: z-score, replicate 1 = 0.5.
Silencing of CG13000 [DRSC19519] came out at: z-score, replicate 1 = -0.79.
Against CG7011 + Prp31 [DRSC10760], the values are z-score, replicate 1 = 0.2.
For Pgant2 [DRSC00587] the deposit lists z-score, replicate 1 = 0.49.
CG7968 [DRSC01903] scored z-score, replicate 1 = 0.19.
CR12628 + Mgstl [DRSC03702] gave z-score, replicate 1 = 0.3.
Against CR12628 + Mgstl [DRSC20568] the deposit lists z-score, replicate 1 = 0.46.
For CG30389 [DRSC04077], the values are z-score, replicate 1 = -0.72.
Depletion of CG30389 [DRSC04452] gave: z-score, replicate 1 = 0.05.
With knock-down of CR10032 [DRSC12499], the screen gave z-score, replicate 1 = 0.24.
After knock-down of Gr98b [DRSC21675], the screen gave z-score, replicate 1 = 0.01.
Against mRpL33 [DRSC18319], the values are z-score, replicate 1 = 0.27.
After knock-down of Nulp1 [DRSC09677], the screen gave z-score, replicate 1 = 0.46.
For CG32944 [DRSC12138], the values are z-score, replicate 1 = 0.39.
CG32944 [DRSC12341] gave z-score, replicate 1 = 0.48.
With knock-down of nan [DRSC10551] the results were z-score, replicate 1 = 0.21.
After knock-down of CG13675 [DRSC08908], the screen gave z-score, replicate 1 = -2.45; phenotype, replicate 1 = reduced secretion.
Against CG13675 [DRSC10034], the entry reads z-score, replicate 1 = -2.35; phenotype, replicate 1 = reduced secretion.
Against Slik [DRSC04471], the entry reads z-score, replicate 1 = -0.51.
Pkg21D [DRSC00772] gave z-score, replicate 1 = 0.12.

Part of the list above, showing only “z-score, replicate 1”.
CG5550 [DRSC06943]: 0.25
tra [DRSC11405]: 0.26
CG7084 [DRSC16194]: 0.3
Nup58 [DRSC16235]: -0.13
